Four molecules from PMC3050435 can be followed below.

Chains of the proteins cited; added tags and fusions are not shown.
UniProt Q14289: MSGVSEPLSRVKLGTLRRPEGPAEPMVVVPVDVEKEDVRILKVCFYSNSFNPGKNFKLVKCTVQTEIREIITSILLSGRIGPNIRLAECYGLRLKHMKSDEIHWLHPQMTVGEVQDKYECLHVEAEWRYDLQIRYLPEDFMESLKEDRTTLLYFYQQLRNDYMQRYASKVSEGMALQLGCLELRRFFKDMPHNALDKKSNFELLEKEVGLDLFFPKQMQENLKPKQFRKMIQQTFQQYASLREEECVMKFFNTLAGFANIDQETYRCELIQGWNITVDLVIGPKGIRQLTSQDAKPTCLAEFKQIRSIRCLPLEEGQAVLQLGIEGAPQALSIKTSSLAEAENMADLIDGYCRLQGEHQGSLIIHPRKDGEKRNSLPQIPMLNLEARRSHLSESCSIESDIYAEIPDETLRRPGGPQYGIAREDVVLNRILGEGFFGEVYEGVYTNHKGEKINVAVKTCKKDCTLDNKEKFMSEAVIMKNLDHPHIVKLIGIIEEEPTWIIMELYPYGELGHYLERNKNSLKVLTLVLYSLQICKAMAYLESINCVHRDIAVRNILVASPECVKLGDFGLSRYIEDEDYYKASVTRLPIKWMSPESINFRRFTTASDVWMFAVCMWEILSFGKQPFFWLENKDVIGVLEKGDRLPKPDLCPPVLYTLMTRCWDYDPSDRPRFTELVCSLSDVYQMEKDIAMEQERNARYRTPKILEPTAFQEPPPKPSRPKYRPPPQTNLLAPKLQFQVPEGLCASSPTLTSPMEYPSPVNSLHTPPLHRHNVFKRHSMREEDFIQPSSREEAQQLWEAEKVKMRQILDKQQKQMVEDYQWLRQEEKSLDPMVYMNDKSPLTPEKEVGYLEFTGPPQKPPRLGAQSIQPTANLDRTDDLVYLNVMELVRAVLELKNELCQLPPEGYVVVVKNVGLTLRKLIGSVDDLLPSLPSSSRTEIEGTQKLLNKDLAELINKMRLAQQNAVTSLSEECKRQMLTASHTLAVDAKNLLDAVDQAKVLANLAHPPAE

These are yes or no findings as the source states them, for the method shown. Binding seen in cells or lysates may run through a third protein. These calls come from enrichment with a bait or labelling near it, and not all partners need be listed.

This assay has as its target Myc-tagged Pyk2 WT (Proline-rich Tyrosine kinase 2) (UniProt Q14289). Kind of assay: affinity purification with mass spectrometry.

B1: AF-17 (U373) (protein, UniProt P55198 1-1093)
chain: MKEMVGGCCVCSDERGWAENPLVYCDGHACSVAVHQACYGIVQVPTGPWFCRKCESQERAARVRCELCPHKDGALKRTDNGGWAHVVCALYIPEVQFANVLTMEPIVLQYVPHDRFNKTCYICEEQGRESKAASGACMTCNRHGCRQAFHVTCAQMAGLLCEEEVLEVDNVKYCGYCKYHFSKMKTSRHSSGGGGGGAGGGGGSMGGGGSGFISGRRSRSASPSTQQEKHPTHHERGQKKSRKDKERLKQKHKKRPESPPSILTPPVVPTADKVSSSASSSSHHEASTQETSESSRESKGKKSSSHSLSHKGKKLSSGKGVSSFTSASSSSSSSSSSSGGPFQPAVSSLQSSPDFSAFPKLEQPEEDKYSKPTAPAPSAPPSPSAPEPPKADLFEQKVVFSGFGPIMRFSTTTSSSGRARAPSPGDYKSPHVTGSGASAGTHKRMPALSATPVPADETPETGLKEKKHKASKRSRHGPGRPKGSRNKEGTGGPAAPSLPSAQLAGFTATAASPFSGGSLVSSGLGGLSSRTFGPSGSLPSLSLESPLLGAGIYTSNKDPISHSGGMLRAVCSTPLSSSLLGPPGTSALPRLSRSPFTSTLPSSSASISTTQVFSLAGSTFSLPSTHIFGTPMGAVNPLLSQAESSHTEPDLEDCSFRCRGTSPQESLSSMSPISSLPALFDQTASAPCGGGQLDPAAPGTTNMEQLLEKQGDGEAGVNIVEMLKALHALQKENQRLQEQILSLTAKKERLQILNVQLSVPFPALPAALPAANGPVPGPYGLPPQAGSSDSLSTSKSPPGKSSLGLDNSLSTSSEDPHSGCPSRSSSSLSFHSTPPPLPLLQQSPATLPLALPGAPAPLPPQPQNGLGRAPGAAGLGAMPMAEGLLGGLAGSGGLPLNGLLGGLNGAAAPNPASLSQAGGAPTLQLPGCLNSLTEQQRHLLQQQEQQLQQLQQLLASPQLTPEHQTVVYQMIQQIQQKRELQRLQMAGGSQLPMASLLAGSSTPLLSAGTPGLLPTASAPPLLPAGALVAPSLGNNTSLMAAAAAAAAVAAAGGPPVLTAQTNPFLSLSGAEGSGGGPKGGTADKGASANQEKG
With B1, the binding result is listed as “binds”.

B2: Copine-5 (U373) (protein, UniProt Q9HCH3 1-593)
chain: MEQPEDMASLSEFDSLAGSIPATKVEITVSCRNLLDKDMFSKSDPLCVMYTQGMENKQWREFGRTEVIDNTLNPDFVRKFIVDYFFEEKQNLRFDLYDVDSKSPDLSKHDFLGQAFCTLGEIVGSPGSRLEKPLTIGAFSLNSRTGKPMPAVSNGGVPGKKCGTIILSAEELSNCRDVATMQFCANKLDKKDFFGKSDPFLVFYRSNEDGTFTICHKTEVMKNTLNPVWQTFSIPVRALCNGDYDRTIKVEVYDWDRDGSHDFIGEFTTSYRELARGQSQFNIYEVVNPKKKMKKKKYVNSGTVTLLSFAVESECTFLDYIKGGTQINFTVAIDFTASNGNPSQSTSLHYMSPYQLNAYALALTAVGEIIQHYDSDKMFPALGFGAKLPPDGRVSHEFPLNGNQENPSCCGIDGILEAYHRSLRTVQLYGPTNFAPVVTHVARNAAAVQDGSQYSVLLIITDGVISDMAQTKEAIVNAAKLPMSIIIVGVGQAEFDAMVELDGDDVRISSRGKLAERDIVQFVPFRDYVDRTGNHVLSMARLARDVLAEIPDQLVSYMKAQGIRPRPPPAAPTHSPSQSPARTPPASPLHTHI
As for B2, the binding entry was “binds”.

B3: RTEL-1 (U373) (protein, UniProt Q9NZ71 1-1219)
chain: MPKIVLNGVTVDFPFQPYKCQQEYMTKVLECLQQKVNGILESPTGTGKTLCLLCTTLAWREHLRDGISARKIAERAQGELFPDRALSSWGNAAAAAGDPIACYTDIPKIIYASRTHSQLTQVINELRNTSYRPKVCVLGSREQLCIHPEVKKQESNHLQIHLCRKKVASRSCHFYNNVEEKSLEQELASPILDIEDLVKSGSKHRVCPYYLSRNLKQQADIIFMPYNYLLDAKSRRAHNIDLKGTVVIFDEAHNVEKMCEESASFDLTPHDLASGLDVIDQVLEEQTKAAQQGEPHPEFSADSPSPGLNMELEDIAKLKMILLRLEGAIDAVELPGDDSGVTKPGSYIFELFAEAQITFQTKGCILDSLDQIIQHLAGRAGVFTNTAGLQKLADIIQIVFSVDPSEGSPGSPAGLGALQSYKVHIHPDAGHRRTAQRSDAWSTTAARKRGKVLSYWCFSPGHSMHELVRQGVRSLILTSGTLAPVSSFALEMQIPFPVCLENPHIIDKHQIWVGVVPRGPDGAQLSSAFDRRFSEECLSSLGKALGNIARVVPYGLLIFFPSYPVMEKSLEFWRARDLARKMEALKPLFVEPRSKGSFSETISAYYARVAAPGSTGATFLAVCRGKASEGLDFSDTNGRGVIVTGLPYPPRMDPRVVLKMQFLDEMKGQGGAGGQFLSGQEWYRQQASRAVNQAIGRVIRHRQDYGAVFLCDHRFAFADARAQLPSWVRPHVRVYDNFGHVIRDVAQFFRVAERTMPAPAPRATAPSVRGEDAVSEAKSPGPFFSTRKAKSLDLHVPSLKQRSSGSPAAGDPESSLCVEYEQEPVPARQRPRGLLAALEHSEQRAGSPGEEQAHSCSTLSLLSEKRPAEEPRGGRKKIRLVSHPEEPVAGAQTDRAKLFMVAVKQELSQANFATFTQALQDYKGSDDFAALAACLGPLFAEDPKKHNLLQGFYQFVRPHHKQQFEEVCIQLTGRGCGYRPEHSIPRRQRAQPVLDPTGRTAPDPKLTVSTAAAQQLDPQEHLNQGRPHLSPRPPPTGDPGSQPQWGSGVPRAGKQGQHAVSAYLADARRALGSAGCSQLLAALTAYKQDDDLDKVLAVLAALTTAKPEDFPLLHRFSMFVRPHHKQRFSQTCTDLTGRPYPGMEPPGPQEERLAVPPVLTHRAPQPGPSRSEKTGKTQSKISSFLRQRPAGTVGAGGEDAGPSQSSGPPHGPAASEWGL
Take B3: the binding entry was “binds”.

B4: RTEL-1 (RSMC) (protein, UniProt Q5RJZ1 1-1274)
chain: MPRVVLNGVTVDFPFQPYPCQQEYMTKVLECLQKKVNGILESPTGTGKTLCLLCTTLAWREHLRDAVSSLKIAERVQGELFASRTLSSWRSAADANGDSIDCYTDIPKIIYASRTHSQLTQVIGELRNTSYRPKVCVLGSREQLCIHPEVKKQESNHMQISLCRKKVASRSCHFYNNVEEKSLEQELATPILDIEDLVKNGSKHKVCPYYLSRNLKQQADIIFMPYNYLLDAKSRKAHNIDLKGTVVIFDEAHNVEKICEESASFDLTPRDVASGLEVINQVLEEQARVAQHGELQQEFIIDTSSSGLNMELEDIAKLKMILLHLEEAIDAVQLPGDDRGVTKPGSYIFELFAEAQITFQTKGCILESLDQIIQHLTGRTGVFTNTAGLQKLMDIIQIVFSVDPLEGSPGSQVGLGSSHFYKVHIHPETSHRRAAQRSDAWSTTASRKQGKVLSYWCFSPSHSMRELVQQGVRTLILTSGTLAPLSSFALEMQIPFPVCLENPHIIDKNQLWVGVIPRGPDGVQLSSAYDKRFSEECLSSLGKALGNIARVVPHGLLVFFPSYPVMEKSLEFWQAQGMSKKVEALKPLFVEPRNKGSFSEVIDAYYQQVASPGSNGATFLAVCRGKASEGLDFSDMNGRGVIVTGLPYPPRMDPRVILKMQFLDEMKGRSRVGGQCLSGQEWYQQQASRAVNQAIGRVIRHRHDYGAIFLCDHRFAYADARAHLPSWVRPYLKVYDNFGRVIRDVAQFFRVAQKAMPLPVPQAVTSSVSEGEAAVKEATLSSHSLSTRKAMSLDVHVPSLRRRPVGLPTAGDSESSVCVEYEQQTFSAQKRPMGLLAALEYNEQKAGASEEQALSSSTPSLRCEKRLSVEQRGGKKKVRLVNHPEEPVAGTQAGRAKMFMVAVKQALSQANFDTFTQALQHYKSSDDFEALVASLTCLFAEDPKKHTLLKGFYQFVRPHHKQQFEDICFQLTGQRCSYQPGNSLPFGEQAQSTASKQGRRELESKLTLSEGADRQLDPGEHLNQGWPHLSTHLTSKGDTSNCPKVGCVGEKPGQPAVNDYLSDVHKALGSASCNQLTAALRAYKQDDDLDKVLAVVAALTTAKPEHLSLLQRFGMFIRRHHKPRFVQTCADLMGLPTIGKGLELPCPRDESTTVPSELTHEDMKPGPSTSKKPEKTQSKISSFLRQRPDQSARSDDTIMQLPPRLPPEHTTSQWNFVCPACATEDTVLFQCPSCDFCRCRACWQRQLQASRLCPACGAVNRKQSIAQVIWPKPQ
B4: the binding entry is given as “binds”.
